# Results taken from PMC11149935, “SAFB regulates hippocampal stem cell fate by targeting Drosha to destabilize Nfib mRNA” (eLife, 2024).
# Chains of the proteins cited; added tags and fusions are not shown.
# UniProt Q9WVA3: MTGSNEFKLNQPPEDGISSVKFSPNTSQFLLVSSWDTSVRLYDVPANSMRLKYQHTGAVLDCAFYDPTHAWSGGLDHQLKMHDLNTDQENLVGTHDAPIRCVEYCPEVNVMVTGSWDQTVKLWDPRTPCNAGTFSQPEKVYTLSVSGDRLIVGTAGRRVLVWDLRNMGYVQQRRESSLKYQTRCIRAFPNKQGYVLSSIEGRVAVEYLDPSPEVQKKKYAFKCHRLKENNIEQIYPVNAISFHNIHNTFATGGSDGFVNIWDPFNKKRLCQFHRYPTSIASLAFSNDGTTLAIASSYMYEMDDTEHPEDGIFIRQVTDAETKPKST
# UniProt Q501J6: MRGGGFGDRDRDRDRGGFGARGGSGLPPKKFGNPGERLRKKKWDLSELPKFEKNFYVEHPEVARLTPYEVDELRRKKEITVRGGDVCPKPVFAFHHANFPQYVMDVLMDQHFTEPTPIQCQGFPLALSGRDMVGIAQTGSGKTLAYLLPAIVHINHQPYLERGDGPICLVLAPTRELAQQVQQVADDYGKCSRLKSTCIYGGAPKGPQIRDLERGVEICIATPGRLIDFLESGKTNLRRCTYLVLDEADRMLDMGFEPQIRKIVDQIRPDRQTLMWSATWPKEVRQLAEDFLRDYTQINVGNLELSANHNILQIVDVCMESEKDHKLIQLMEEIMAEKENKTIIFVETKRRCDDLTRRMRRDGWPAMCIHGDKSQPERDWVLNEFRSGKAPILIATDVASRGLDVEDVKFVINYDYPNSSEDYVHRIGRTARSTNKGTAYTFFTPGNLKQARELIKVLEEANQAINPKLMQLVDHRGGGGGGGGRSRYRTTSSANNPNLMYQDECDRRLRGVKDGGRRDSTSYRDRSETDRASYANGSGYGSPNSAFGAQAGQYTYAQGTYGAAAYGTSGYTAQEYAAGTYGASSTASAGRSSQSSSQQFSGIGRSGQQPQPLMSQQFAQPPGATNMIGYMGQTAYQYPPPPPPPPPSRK
# UniProt O70133: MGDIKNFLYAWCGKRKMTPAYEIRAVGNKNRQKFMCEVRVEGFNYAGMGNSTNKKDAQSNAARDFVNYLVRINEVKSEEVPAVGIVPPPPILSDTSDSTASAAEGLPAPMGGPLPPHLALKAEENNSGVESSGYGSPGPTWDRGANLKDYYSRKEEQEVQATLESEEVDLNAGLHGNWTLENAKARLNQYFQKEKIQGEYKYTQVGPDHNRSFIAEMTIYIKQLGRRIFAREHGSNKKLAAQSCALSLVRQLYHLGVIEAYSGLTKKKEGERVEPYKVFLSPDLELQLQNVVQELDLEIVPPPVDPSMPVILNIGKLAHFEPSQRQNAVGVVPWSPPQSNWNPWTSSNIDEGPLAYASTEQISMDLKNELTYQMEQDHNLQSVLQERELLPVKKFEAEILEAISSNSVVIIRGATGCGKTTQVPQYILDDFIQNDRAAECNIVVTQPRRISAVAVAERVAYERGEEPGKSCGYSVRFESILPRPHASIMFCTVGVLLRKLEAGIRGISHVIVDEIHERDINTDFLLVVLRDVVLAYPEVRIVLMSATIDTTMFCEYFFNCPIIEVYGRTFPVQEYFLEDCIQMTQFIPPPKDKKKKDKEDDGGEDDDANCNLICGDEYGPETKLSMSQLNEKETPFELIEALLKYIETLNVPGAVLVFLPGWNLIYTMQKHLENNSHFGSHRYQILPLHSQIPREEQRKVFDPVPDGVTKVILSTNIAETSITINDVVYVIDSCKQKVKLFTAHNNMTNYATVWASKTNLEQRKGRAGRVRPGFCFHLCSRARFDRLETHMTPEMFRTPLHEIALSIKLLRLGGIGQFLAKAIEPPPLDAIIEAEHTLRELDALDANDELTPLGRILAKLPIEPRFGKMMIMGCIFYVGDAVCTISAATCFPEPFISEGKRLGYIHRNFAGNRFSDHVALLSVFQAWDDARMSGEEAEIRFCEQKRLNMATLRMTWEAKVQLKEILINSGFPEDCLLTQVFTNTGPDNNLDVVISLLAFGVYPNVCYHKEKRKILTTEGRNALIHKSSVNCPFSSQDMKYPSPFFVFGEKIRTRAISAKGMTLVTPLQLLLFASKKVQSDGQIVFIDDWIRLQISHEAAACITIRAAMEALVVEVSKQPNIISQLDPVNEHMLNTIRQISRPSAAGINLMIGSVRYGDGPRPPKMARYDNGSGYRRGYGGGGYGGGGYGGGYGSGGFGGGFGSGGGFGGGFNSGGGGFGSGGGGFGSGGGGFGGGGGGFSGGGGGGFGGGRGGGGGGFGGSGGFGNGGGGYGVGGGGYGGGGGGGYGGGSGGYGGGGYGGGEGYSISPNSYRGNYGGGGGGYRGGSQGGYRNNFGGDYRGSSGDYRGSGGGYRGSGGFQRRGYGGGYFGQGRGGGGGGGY
# UniProt O88569: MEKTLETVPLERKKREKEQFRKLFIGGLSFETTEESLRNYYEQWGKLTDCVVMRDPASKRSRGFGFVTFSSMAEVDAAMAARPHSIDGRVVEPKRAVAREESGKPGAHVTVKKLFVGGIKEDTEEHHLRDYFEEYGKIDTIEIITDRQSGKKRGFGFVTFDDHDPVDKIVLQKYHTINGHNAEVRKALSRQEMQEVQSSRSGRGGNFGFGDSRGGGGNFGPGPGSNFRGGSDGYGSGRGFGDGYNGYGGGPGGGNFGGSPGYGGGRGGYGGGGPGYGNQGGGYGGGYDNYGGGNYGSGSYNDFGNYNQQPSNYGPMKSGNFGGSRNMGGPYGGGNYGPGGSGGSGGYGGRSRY
# UniProt Q80YR5: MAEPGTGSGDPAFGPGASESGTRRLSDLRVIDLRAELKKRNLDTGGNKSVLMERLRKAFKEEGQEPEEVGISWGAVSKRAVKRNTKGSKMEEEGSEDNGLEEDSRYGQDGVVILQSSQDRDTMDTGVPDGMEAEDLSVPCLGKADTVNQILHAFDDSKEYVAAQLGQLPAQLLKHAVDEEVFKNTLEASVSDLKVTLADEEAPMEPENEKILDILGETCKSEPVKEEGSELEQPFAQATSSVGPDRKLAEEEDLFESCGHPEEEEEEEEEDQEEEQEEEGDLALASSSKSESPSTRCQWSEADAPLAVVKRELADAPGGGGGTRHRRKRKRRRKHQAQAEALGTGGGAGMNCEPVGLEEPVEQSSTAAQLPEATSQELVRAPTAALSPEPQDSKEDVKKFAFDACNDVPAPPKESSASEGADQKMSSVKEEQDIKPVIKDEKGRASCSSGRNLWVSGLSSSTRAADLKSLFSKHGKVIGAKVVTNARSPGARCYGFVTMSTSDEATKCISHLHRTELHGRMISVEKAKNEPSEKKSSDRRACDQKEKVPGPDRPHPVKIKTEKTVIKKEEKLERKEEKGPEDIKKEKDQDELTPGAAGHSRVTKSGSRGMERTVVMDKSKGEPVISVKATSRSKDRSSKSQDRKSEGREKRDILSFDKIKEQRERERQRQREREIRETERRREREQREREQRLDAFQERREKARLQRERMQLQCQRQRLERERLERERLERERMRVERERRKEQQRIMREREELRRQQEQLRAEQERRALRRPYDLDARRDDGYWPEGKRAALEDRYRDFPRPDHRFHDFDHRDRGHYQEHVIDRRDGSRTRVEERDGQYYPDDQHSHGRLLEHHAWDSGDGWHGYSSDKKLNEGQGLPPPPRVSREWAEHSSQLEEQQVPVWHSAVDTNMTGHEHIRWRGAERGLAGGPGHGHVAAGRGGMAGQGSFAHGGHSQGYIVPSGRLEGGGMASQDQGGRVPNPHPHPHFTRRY
# UniProt Q60749: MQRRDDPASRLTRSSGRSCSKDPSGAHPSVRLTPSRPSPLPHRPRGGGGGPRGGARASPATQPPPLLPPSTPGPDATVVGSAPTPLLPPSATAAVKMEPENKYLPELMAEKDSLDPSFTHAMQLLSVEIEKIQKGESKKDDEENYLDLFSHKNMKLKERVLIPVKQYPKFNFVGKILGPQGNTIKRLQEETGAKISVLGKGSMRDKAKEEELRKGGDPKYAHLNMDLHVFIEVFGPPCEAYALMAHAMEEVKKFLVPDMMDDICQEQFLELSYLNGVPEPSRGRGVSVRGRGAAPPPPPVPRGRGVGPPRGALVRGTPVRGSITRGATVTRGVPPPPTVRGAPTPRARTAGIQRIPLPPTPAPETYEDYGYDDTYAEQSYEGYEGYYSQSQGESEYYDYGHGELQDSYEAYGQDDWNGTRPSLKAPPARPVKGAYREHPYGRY
# UniProt Q921F2: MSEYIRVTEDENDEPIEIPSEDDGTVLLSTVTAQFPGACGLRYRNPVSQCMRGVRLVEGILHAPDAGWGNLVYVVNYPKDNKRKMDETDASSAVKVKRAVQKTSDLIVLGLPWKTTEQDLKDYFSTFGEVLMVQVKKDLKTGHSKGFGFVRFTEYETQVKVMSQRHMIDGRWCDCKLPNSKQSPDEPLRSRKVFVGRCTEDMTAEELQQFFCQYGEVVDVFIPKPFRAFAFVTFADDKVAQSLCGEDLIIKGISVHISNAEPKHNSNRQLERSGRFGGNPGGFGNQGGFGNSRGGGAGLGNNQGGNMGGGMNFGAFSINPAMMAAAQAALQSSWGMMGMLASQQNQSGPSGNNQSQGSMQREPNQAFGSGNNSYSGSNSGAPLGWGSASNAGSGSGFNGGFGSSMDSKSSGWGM
# UniProt D3YXK2: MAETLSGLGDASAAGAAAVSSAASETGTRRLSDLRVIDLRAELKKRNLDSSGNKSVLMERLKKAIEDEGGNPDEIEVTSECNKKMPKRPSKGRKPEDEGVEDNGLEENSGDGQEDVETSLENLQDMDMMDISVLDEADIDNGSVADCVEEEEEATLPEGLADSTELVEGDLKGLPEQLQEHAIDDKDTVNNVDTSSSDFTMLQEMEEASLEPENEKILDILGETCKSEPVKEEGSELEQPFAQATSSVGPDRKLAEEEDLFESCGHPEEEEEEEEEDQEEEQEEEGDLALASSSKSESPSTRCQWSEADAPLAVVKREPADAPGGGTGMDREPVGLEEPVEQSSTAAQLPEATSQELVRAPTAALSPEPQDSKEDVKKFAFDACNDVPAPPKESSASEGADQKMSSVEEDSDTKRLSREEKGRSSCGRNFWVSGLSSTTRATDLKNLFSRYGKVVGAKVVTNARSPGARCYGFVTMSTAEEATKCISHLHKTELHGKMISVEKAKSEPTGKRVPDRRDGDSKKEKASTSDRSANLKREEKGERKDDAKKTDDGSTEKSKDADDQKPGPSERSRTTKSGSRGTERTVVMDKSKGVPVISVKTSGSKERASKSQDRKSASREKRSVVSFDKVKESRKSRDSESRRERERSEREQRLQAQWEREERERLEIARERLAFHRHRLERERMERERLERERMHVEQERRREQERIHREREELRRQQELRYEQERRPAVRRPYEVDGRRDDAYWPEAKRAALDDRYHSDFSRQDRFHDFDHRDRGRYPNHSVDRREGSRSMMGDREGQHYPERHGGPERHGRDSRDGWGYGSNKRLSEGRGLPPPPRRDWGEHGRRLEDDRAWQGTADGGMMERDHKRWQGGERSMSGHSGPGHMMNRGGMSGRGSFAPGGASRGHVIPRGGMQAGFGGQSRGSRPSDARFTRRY
# No constants are given. Whether binding was seen depends on the method and setting. In cells and extracts the contact can be indirect. These calls come from enrichment with a bait or labelling near it, and not all partners need be listed. A no says only that the protein was not detected with the bait.
# T1: Drosha (mouse (endogenous in DG NSCs)) (UniProt Q5HZJ0)
# T1 sequence: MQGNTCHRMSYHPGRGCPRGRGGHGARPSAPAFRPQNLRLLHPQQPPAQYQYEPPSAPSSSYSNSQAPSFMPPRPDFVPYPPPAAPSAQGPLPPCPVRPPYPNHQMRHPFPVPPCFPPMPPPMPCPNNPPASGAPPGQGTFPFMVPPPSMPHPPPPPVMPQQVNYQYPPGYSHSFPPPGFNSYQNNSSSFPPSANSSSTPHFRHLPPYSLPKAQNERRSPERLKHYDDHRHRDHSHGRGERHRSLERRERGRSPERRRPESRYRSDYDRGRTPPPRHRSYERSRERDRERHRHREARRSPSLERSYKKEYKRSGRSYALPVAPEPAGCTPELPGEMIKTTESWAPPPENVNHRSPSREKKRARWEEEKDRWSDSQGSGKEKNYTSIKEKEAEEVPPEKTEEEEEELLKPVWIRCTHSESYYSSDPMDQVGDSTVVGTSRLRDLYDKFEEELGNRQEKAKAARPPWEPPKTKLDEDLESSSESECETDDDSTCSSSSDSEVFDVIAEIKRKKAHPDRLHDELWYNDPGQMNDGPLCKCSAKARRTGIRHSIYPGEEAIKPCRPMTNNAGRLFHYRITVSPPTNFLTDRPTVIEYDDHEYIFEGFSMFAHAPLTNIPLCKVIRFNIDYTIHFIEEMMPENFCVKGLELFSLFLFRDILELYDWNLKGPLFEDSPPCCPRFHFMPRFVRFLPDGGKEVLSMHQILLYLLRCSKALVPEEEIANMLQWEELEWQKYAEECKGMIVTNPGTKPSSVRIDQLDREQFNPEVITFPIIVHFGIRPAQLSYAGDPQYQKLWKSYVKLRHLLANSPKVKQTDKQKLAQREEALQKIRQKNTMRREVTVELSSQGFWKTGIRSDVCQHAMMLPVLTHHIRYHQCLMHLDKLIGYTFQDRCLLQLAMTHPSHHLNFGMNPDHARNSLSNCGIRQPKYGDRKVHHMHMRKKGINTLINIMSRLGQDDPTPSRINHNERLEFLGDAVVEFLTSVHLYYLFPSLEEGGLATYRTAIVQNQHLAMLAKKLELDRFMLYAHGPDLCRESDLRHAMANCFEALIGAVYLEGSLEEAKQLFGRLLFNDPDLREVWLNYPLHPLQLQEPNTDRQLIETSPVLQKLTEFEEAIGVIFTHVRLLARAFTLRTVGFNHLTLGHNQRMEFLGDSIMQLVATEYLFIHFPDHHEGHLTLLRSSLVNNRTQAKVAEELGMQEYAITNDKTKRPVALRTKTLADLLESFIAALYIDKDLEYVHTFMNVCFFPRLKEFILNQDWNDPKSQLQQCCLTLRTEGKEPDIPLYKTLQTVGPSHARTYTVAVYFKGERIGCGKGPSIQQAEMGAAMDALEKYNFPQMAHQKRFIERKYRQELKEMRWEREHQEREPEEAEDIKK
# B1: Khsrp (protein, UniProt Q3U0V1 1-748)
# chain: MSDYNTGGPPPGPPPPAGGGGGAAGAGGGPPPGPPGAGDRGGGGPGGGGPGGGGASGGPSQPPGGGGPGIRKDAFADAVQRARQIAAKIGGDAATTVNNNTPDFGFGGQKRQLEDGDQPDSKKLASQGDSIGSQLGPIHPPPRTSMTEEYRVPDGMVGLIIGRGGEQINKIQQDSGCKVQISPDSGGLPERSVSLTGAPESVQKAKMMLDDIVSRGRGGPPGQFHDNANGGQNGTVQEIMIPAGKAGLVIGKGGETIKQLQERAGVKMILIQDGSQNTNVDKPLRIIGDPYKVQQACEMVMDILRERDQGGFGDRNEYGSRVGGGIDVPVPRHSVGVVIGRSGEMIKKIQNDAGVRIQFKQDDGTGPEKIAHIMGPPDRCEHAARIINDLLQSLRSGPPGPPGAPGMPPGGRGRGRGQGNWGPPGGEMTFSIPTHKCGLVIGRGGENVKAINQQTGAFVEISRQLPPNGDPNFKLFVIRGSPQQIDHAKQLIEEKIEGPLCPVGPGPGGPGPAGPMGPFNPGPFNQGPPGAPPHAGGPPPHQYPPQGWGNTYPQWQPPAPHDPNKAAAAATDPNAAWAAYYSHYYQQPPGPVPGPAPAPAAPPAQGEPPQPPPTGQSDYTKAWEEYYKKIGQQPQQPGAPPQQDYTKAWEEYYKKQAQVATGGGPGAPPGSQPDYSAAWAEYYRQQAAYYGQTPGPGGPQPPPTQQGQQQASGNCHPPPPPFSFQPPATVHPALVGSAGNPFPCGVCP
# B2: Pabpn1 (protein, UniProt Q8CCS6 1-302)
# chain: MAAAAAAAAAAGAAGGRGSGPGRRRHLVPGAGGEAGEGDPGGAGDYGNGLESEELEPGELLPEPEPEEEPPRPRAPPGAPGPGPGSGAPGSQEEEEEPGLVEADPGDGAIEDPELEAIKARVREMEEEAEKLKELQNEVEKQMNMSPPPGNAGPVIMSLEEKMEADARSIYVGNVDYGATAEELEAHFHGCGSVNRVTILCDKFSGHPKGFAYIEFSDKESVRTSLALDESLFRGRQIKVIPKRTNRPGISTTDRGFPRSRYRARTTNYNSSRSRFYSGFNSRPRGRIYRGRARATSWYSPY
# B3: Prpf6 (protein, UniProt Q91YR7 1-941)
# chain: MNKKKKPFLGMPAPLGYVPGLGRGATGFTTRSDIGPARDANDPVDDRHAPPGKRTVGDQMKKNQAADDDDEDLNDTNYDEFNGYAGSLFSSGPYEKDDEEADAIYAALDKRMDERRKERREQREKEEIEKYRMERPKIQQQFSDLKRKLAEVTEEEWLSIPEVGDARNKRQRNPRYEKLTPVPDSFFAKHLQTGENHTSVDPRQTQFGGLNTPYPGGLNTPYPGGMTPGLMTPGTGELDMRKIGQARNTLMDMRLSQVSDSVSGQTVVDPKGYLTDLNSMIPTHGGDINDIKKARLLLKSVRETNPHHPPAWIASARLEEVTGKLQVARNLIMKGTEMCPKSEDVWLEAARLQPGDTAKAVVAQAVRHLPQSVRIYIRAAELETDIRAKKRVLRKALEHVPNSVRLWKAAVELEEPEDARIMLSRAVECCPTSVELWLALARLETYENARKVLNKARENIPTDRHIWITAAKLEEANGNTQMVEKIIDRAITSLRANGVEINREQWIQDAEECDRAGSVATCQAVMRAVIGIGIEEEDRKHTWMEDADSCVAHNALECARAIYAYALQVFPSKKSVWLRAAYFEKNHGTRESLEALLQRAVAHCPKAEVLWLMGAKSKWLAGDVPAARSILALAFQANPNSEEIWLAAVKLESENNEYERARRLLAKARSSAPTARVFMKSVKLEWVLGNISAAQELCEEALRHYEDFPKLWMMKGQIEEQGELMEKAREAYNQGLKKCPHSTPLWLLLSRLEEKIGQLTRARAILEKSRLKNPKNPGLWLESVRLEYRAGLKNIANTLMAKALQECPNSGILWSEAVFLEARPQRKTKSVDALKKCEHDPHVLLAVAKLFWSERKITKAREWFHRTVKIDSDLGDAWAFFYKFELQHGTEEQQEEVRKRCENAEPRHGELWCAVSKDITNWQRKIGEILVLVAARIKNTF
# B4: Sart1 (protein, UniProt Q9Z315 1-806)
# chain: MGSSKKHRGEKEAAGTTAAAGTGGTTEQPPRHREHKKHKHRSSGGGSSGGERRKRSRERGSERGSGRRGAEAEARSGAHGRERSQAEPSERRVKREKRDDGYEAAASSKASSGDASSLSIEETNKLRAKLGLKPLEVNAVKKEAGTKEEPVAADVINPMALRQREELREKLAAAKEKRLLNQKLGKIKTLGEDDPWLDDTAAWIERSRQLQKEKDLAEKRAKLLEEMDQEFGVSTLVEEEFEQRRQDLYSARDLQGLTVEHAIDSFREGETVVLTLKDKGVLQDGEDVLVNVNMVDKERADKNVELRKKKPDYLPYAEDESVDDLAQQKPRSILAKYDEELEGERPHSFRLEQGGMADGLRERELEEIRTKLRLQAQSLSSVGPRLASEYLSPEEMVTFKKTKRRVKKIRKKEKEVIMRADDLLPLGDQTQDGDFGSRLRGRGRRRVPEVEEEALEDEEKDPVAQPPPSDDTRVENMDISDEEDGGALPPGSPEGLEEDEAELELQKQLEKGRRLRQLQQLQQLRDSGEKVLEIVKKLESRQRGWEEEEDPERKGTIVFNATSEFCRTLGEIPTYGLAGNREEQEELMDFERDEERSANGGSESDGEENIGWSTVNLDEEKQHQDFSASSTTILDEEPIVNRGLAAALLLCQNKGLLETTVQKVARVKAPNKSLPSAVYCIEDKMAIDDKYSRREEYRGFTQDFKEKDGYKPDVKIEYVDETGRKLTPKEAFRQLSHRFHGKGSGKMKTERRMKKLDEEALLKKMSSSDTPLGTVALLQEKQKAQKTPYIVLSGSGKSMNANTITK
# B5: Sf1 (protein, UniProt Q64213 1-653)
# chain: MATGANATPLDFPSKKRKRSRWNQDTMEQKTVIPGMPTVIPPGLTREQERAYIVQLQIEDLTRKLRTGDLGIPPNPEDRSPSPEPIYNSEGKRLNTREFRTRKKLEEERHTLITEMVALNPDFKPPADYKPPATRVSDKVMIPQDEYPEINFVGLLIGPRGNTLKNIEKECNAKIMIRGKGSVKEGKVGRKDGQMLPGEDEPLHALVTANTMENVKKAVEQIRNILKQGIETPEDQNDLRKMQLRELARLNGTLREDDNRILRPWQSSETRSITNTTVCTKCGGAGHIASDCKFQRPGDPQSAQDKARMDKEYLSLMAELGEAPVPASVGSTSGPATTPLASAPRPAAPASNPPPPSLMSTTQSRPPWMNSGPSENRPYHGMHGGGPGGPGGGPHSFPHPLPSLTGGHGGHPMQHNPNGPPPPWMQPPPPPMNQGPHPPGHHGPPPMDQYLGSTPVGSGVYRLHQGKGMMPPPPMGMMPPPPPPPSGQPPPPPSGPLPPWQQQQQQPPPPPPPSSSMASSTPLPWQQNTTTTTTSAGTGSIPPWQQQQAAAAASPGTPQMQGNPTMVPLPPGVQPPLPPGAPPPPPCSIECLLCLLSSPNSLCLSPNRAARIPPRGSDGPSHESEDFPRPLVTLPGRQPQQRPWWTGWFGKAA
# Target: T1, Drosha (mouse (endogenous in DG NSCs))
# Test: affinity purification with mass spectrometry; endogenous Drosha immunoprecipitated with anti-Drosha antibody from adult mouse DG NSC lysate, on-bead trypsin digestion, LC-MS/MS with label-free quantification over control IP; hits: p<0.05, log2 fold change >=3, FDR <=0.001, peptide count >=4
row,Molecule,binding
1,Bub3 (from UniProt Q9WVA3 1-326),binds
2,Ddx17 (from UniProt Q501J6 1-650),binds
3,Dhx9 (from UniProt O70133 1-1380),binds
4,Hnrnpa2b1 (from UniProt O88569 1-353),binds
5,Hnrnpu (from UniProt Q8VEK3 1-800),binds
6,PKC-α (from UniProt P20444 1-672),no binding
7,SAFB2 (from UniProt Q80YR5 1-991),binds
8,SAFB-like transcription modulator (SLTM) (from UniProt Q8CH25 1-1031),binds
9,Sam68 (from UniProt Q60749 1-443),binds
10,Tdp43 (from UniProt Q921F2 1-414),binds
11,scaffold attachment factor B (SAFB) (from UniProt D3YXK2 1-937),binds
12,B1,binds
13,B2,binds
14,B3,binds
15,B4,binds
16,B5,binds
